Data taken from PubChem BioAssay AID504749, deposited by NCATS (2011).

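A panel of P. falciparum strains inside erythrocytes is exposed to compounds for three days, then a DNA-binding dye reports the amount of parasite DNA. Each compound was titrated across a series from about 0.000037 to 29 µM. The number is the fitted AC50, the concentration giving a half-maximal change in signal; a lower value means higher potency, whether the curve shows a decrease or an increase. Calls follow the curve class and fit quality: every row here is inconclusive, covering signal-raising curves and weak, poorly fitted, partial or highest-dose-only inhibition curves.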

Values are in nM. All entries here are filed as inconclusive. Only part of the assay is shown, chiefly results filed as inconclusive. Potencies fitted to partial, single-point or poorly fitting curves are rough. Some entries filed as inconclusive have a full curve.

| SMILES | condition | potency (nM) | remark |
|---|---|---|---|
| `Cc1nc2ccccc2n1Cc1ccc(Cl)cc1` | GB4 | 15101 | inhibitor, single point |
| `Cc1nc2ccccc2n1Cc1ccc(Cl)cc1` | CP194 | 19011 | inhibitor, single point |
| `Cc1nc2ccccc2n1Cc1ccc(Cl)cc1` | CP265 | 15848 | inhibitor, single point |
| `Cc1nc2ccccc2n1Cc1ccc(Cl)cc1` | N140 | 19952 | inhibitor, single point |
| `Cc1nc2ccccc2n1Cc1ccc(Cl)cc1` | CP256 | 8912 | inhibitor, partial curve |
| `Cc1nc2ccccc2n1Cc1ccc(Cl)cc1` | CP262 | 15101 | inhibitor, single point |
| `Cc1nc2ccccc2n1Cc1ccc(Cl)cc1` | ICS | 12589 | inhibitor, partial curve, poor fit |
| `Cc1nc2ccccc2n1Cc1ccc(Cl)cc1` | W2 | 15101 | inhibitor, single point |
| `Cc1nc2ccccc2n1Cc1ccc(Cl)cc1` | AS120 | 19952 | inhibitor, single point |
| `CN1CCCC(=C(c2cccs2)c2cccs2)C1` | PC26 | 1901 | inhibitor, partial curve |
| `CN1CCCC(=C(c2cccs2)c2cccs2)C1` | TAB165 | 11220 | inhibitor, partial curve |
| `CN1CCCC(=C(c2cccs2)c2cccs2)C1` | PAD | 11220 | inhibitor, partial curve |
| `CN1CCCC(=C(c2cccs2)c2cccs2)C1` | TAB109 | 3162 | inhibitor, full curve |
| `CN1CCCC(=C(c2cccs2)c2cccs2)C1` | ICS | 5623 | inhibitor, partial curve |
| `CN1CCCC(=C(c2cccs2)c2cccs2)C1` | CP203 | 11995 | inhibitor, single point |
| `CN1CCCC(=C(c2cccs2)c2cccs2)C1` | TAB113 | 12589 | inhibitor, single point |
| `CN1CCCC(=C(c2cccs2)c2cccs2)C1` | P94_40 | 8912 | inhibitor, partial curve |
| `CN1CCCC(=C(c2cccs2)c2cccs2)C1` | P93_24 | 8912 | inhibitor, partial curve |
| `CN1CCCC(=C(c2cccs2)c2cccs2)C1` | PC49 | 11220 | inhibitor, partial curve |
| `CN1CCCC(=C(c2cccs2)c2cccs2)C1` | N140 | 11220 | inhibitor, single point |
| `CN1CCCC(=C(c2cccs2)c2cccs2)C1` | SC27B | 15848 | inhibitor, partial curve |
| `COC1OC(CO)C(OC2OC(C(=O)O)C(OC3OC(COS(=O)(=O)O)C(OC4OC(C(=O)O)C(OC5OC(CO)C(OC6OC(C(=O)O)C(OC7OC(COS(=O)(=O)O)C(OC8OC(C(=O)O)=C[C@H](O)C8OS(=O)(=O)O)C(O)C7NC(C)=O)[C@@H](O)C6O)C(O)C5NC(C)=O)[C@@H](O)C4O)C(O)C3NC(C)=O)[C@@H](O)C2O)C(O)C1NC(C)=O` (stereo partly specified) | P93_24 | 17782 | inhibitor, single point |
| `COC1OC(CO)C(OC2OC(C(=O)O)C(OC3OC(COS(=O)(=O)O)C(OC4OC(C(=O)O)C(OC5OC(CO)C(OC6OC(C(=O)O)C(OC7OC(COS(=O)(=O)O)C(OC8OC(C(=O)O)=C[C@H](O)C8OS(=O)(=O)O)C(O)C7NC(C)=O)[C@@H](O)C6O)C(O)C5NC(C)=O)[C@@H](O)C4O)C(O)C3NC(C)=O)[C@@H](O)C2O)C(O)C1NC(C)=O` (stereo partly specified) | ECU | 12589 | inhibitor, single point |
| `COC1OC(CO)C(OC2OC(C(=O)O)C(OC3OC(COS(=O)(=O)O)C(OC4OC(C(=O)O)C(OC5OC(CO)C(OC6OC(C(=O)O)C(OC7OC(COS(=O)(=O)O)C(OC8OC(C(=O)O)=C[C@H](O)C8OS(=O)(=O)O)C(O)C7NC(C)=O)[C@@H](O)C6O)C(O)C5NC(C)=O)[C@@H](O)C4O)C(O)C3NC(C)=O)[C@@H](O)C2O)C(O)C1NC(C)=O` (stereo partly specified) | PAD | 11220 | inhibitor, single point |

Once more, the final 3:

| SMILES | condition | potency (nM) | remark |
|---|---|---|---|
| `COC1OC(CO)C(OC2OC(C(=O)O)C(OC3OC(COS(=O)(=O)O)C(OC4OC(C(=O)O)C(OC5OC(CO)C(OC6OC(C(=O)O)C(OC7OC(COS(=O)(=O)O)C(OC8OC(C(=O)O)=C[C@H](O)C8OS(=O)(=O)O)C(O)C7NC(C)=O)[C@@H](O)C6O)C(O)C5NC(C)=O)[C@@H](O)C4O)C(O)C3NC(C)=O)[C@@H](O)C2O)C(O)C1NC(C)=O` (stereo partly specified) | P93_24 | 17782 | inhibitor, single point |
| `COC1OC(CO)C(OC2OC(C(=O)O)C(OC3OC(COS(=O)(=O)O)C(OC4OC(C(=O)O)C(OC5OC(CO)C(OC6OC(C(=O)O)C(OC7OC(COS(=O)(=O)O)C(OC8OC(C(=O)O)=C[C@H](O)C8OS(=O)(=O)O)C(O)C7NC(C)=O)[C@@H](O)C6O)C(O)C5NC(C)=O)[C@@H](O)C4O)C(O)C3NC(C)=O)[C@@H](O)C2O)C(O)C1NC(C)=O` (stereo partly specified) | ECU | 12589 | inhibitor, single point |
| `COC1OC(CO)C(OC2OC(C(=O)O)C(OC3OC(COS(=O)(=O)O)C(OC4OC(C(=O)O)C(OC5OC(CO)C(OC6OC(C(=O)O)C(OC7OC(COS(=O)(=O)O)C(OC8OC(C(=O)O)=C[C@H](O)C8OS(=O)(=O)O)C(O)C7NC(C)=O)[C@@H](O)C6O)C(O)C5NC(C)=O)[C@@H](O)C4O)C(O)C3NC(C)=O)[C@@H](O)C2O)C(O)C1NC(C)=O` (stereo partly specified) | PAD | 11220 | inhibitor, single point |